## Library screen at single concentrations

Chains of the proteins cited; added tags and fusions are not shown.
UniProt I6X8D2, whole entry: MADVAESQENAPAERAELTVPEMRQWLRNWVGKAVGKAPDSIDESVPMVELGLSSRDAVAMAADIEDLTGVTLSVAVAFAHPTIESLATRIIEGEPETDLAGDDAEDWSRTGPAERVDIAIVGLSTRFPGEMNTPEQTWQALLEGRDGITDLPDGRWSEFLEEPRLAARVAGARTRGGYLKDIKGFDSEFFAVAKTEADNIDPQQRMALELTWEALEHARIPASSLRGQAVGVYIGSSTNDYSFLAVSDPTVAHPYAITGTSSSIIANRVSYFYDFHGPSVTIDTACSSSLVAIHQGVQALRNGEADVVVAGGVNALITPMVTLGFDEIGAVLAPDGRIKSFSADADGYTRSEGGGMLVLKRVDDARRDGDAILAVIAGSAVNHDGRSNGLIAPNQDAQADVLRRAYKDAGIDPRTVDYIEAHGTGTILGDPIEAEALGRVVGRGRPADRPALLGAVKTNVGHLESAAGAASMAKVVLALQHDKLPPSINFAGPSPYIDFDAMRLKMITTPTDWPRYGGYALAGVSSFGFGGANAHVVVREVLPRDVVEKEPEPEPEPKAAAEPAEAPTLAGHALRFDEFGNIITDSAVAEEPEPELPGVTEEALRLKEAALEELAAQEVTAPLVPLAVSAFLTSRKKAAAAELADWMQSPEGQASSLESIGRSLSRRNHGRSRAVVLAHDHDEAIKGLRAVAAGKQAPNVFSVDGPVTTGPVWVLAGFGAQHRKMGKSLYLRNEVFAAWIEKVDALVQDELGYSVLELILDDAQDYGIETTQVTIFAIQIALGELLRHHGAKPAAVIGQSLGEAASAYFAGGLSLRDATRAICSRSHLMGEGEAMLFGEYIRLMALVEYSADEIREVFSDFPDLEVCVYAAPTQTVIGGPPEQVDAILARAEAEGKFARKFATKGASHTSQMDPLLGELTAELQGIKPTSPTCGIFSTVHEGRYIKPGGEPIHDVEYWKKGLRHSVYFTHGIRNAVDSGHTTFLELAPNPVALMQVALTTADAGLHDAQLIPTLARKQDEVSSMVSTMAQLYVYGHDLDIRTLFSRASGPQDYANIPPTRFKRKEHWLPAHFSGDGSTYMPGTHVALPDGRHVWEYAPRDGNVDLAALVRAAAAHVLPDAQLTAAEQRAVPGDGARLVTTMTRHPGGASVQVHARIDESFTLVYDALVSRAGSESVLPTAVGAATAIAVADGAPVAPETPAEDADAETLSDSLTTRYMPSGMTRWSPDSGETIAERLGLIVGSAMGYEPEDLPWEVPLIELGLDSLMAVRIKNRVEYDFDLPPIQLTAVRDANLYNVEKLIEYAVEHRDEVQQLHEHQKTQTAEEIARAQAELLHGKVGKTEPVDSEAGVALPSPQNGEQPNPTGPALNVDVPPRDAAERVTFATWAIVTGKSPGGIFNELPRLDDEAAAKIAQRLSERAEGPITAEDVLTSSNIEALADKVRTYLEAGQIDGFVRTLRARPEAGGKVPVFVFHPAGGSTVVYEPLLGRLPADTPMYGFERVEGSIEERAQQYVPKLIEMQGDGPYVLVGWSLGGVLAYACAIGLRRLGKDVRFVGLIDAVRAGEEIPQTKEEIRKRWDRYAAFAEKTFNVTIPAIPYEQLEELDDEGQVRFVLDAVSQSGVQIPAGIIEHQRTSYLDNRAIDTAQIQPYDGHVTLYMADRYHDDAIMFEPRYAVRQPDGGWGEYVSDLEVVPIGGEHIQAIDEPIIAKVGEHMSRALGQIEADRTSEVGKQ

The values are deposited in ChEMBL (CHEMBL3988442, “University of Dundee, Small-Polar-MMV Screening Library” (2021)).

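Enzyme assay of the thioesterase domain of polyketide synthase 13; the read-out is not stated. Target: Polyketide synthase Pks13, Mycobacterium tuberculosis (UniProt I6X8D2). Concentration: 30 µM. Higher reads as stronger inhibition (inferred from which compounds were picked for retests). About 67,000 compounds were tested under these conditions; 0.46% (about 300) showed 50% or more at least once.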

Values are the deposited “Percent Effect”, in %.
How 0% and 100% were set is not recorded. Most values in the screen are low, and negative values occur.
Compounds were drawn at random from those tested, without regard to their results.

* Cc1ccc(C(=O)N2CC[C@H](Oc3cccnc3C)[C@@H](O)CC2)s1 | -9.026%
* N#Cc1ccc(CN(CCF)Cc2cccc(F)c2)cc1 | -16.36%
* Cc1oc(NC(=O)C(C)N2CCN(C(=O)C3CC3)CC2)c(C#N)c1C (stereo not given) | -29.13%
* CCc1nnsc1C(=O)N1CCCN(Cc2cnn(CC)c2)CC1 | -0.2275%
* N#Cc1cc(S(N)(=O)=O)ccc1NC1CCc2cc(Cl)ccc21 (stereo not given) | -6.467%
* Cc1ncc(CN(C)C2CCCN(CCc3ccccc3)C2)n1C (stereo not given) | -3.476%
* CC1CCCN(c2ccc(C(N)=O)cc2NC(=O)CC2=CCNCC2)C1 (stereo not given) | -22.83%
* Cc1cnn(CC2CCCCN2C(=O)c2nccnc2N)c1 (stereo not given) | -1.348%
* Cc1nc(CN(C)C2CCN(Cc3cccc4c3OCCO4)C2)no1 (stereo not given) | -36.71%
* CCN1CCOC(CNc2nccc(C(F)(F)F)n2)C1 (stereo not given) | -20.96%
* c1cc(C2CCCN2Cc2nnnn2C2CC2)cs1 (stereo not given) | -11.61%
* Cc1nc(CN2CCOC3(CCCC3)C2)oc1C | -2.589%
* NC1C=C(C(F)(F)F)NC=C1c1ccc(Cl)cc1 (stereo not given) | 28.09%
* c1csc(-c2noc(C3CCCOC3)n2)c1 (stereo not given) | -30.91%
* CC(=O)c1ccc(C(=O)N(C)Cc2nc(-c3ccccn3)no2)s1 | -0.05388%
* CCCc1cc(=O)n(CC(=O)NCCOC)c(-n2nc(C)cc2C)n1 | -2.252%
* c1c[nH]c(CN2CCCC(Cc3ccc(NC4CCCC4)nn3)C2)n1 (stereo not given) | -35.68%
* O=C(NCCCOCC1CC1)Nc1ccc(-n2cncn2)c(F)c1 | -14.87%
* CN(C)c1ncccc1CNS(=O)(=O)c1c(F)cccc1F | -1.427%
* Cc1ncsc1C(=O)N(Cc1ccccn1)C1CC1 | -28.88%
* CC(C)c1nc(/C=C/c2cnn(-c3ccc(Cl)cc3)c2)ncc1C(=O)O | -26.62%
* Cc1ccc(Oc2cc(F)ccc2O[C@@H]2CCC[C@@H](N)[C@H]2O)cc1 | 5.079%
* c1cn(-c2cnc(C3CCCNC3)cn2)cn1 (stereo not given) | -9.442%
* CCc1cc(N2CCC(NC3CN4CCC3CC4)CC2)nc(N(C)C)n1 (stereo not given) | -30.95%
* Cc1noc(C)c1CCC(=O)N1CCCN(Cc2cccs2)CC1 | -13.29%
* Cc1cc(C)c(CNC(=O)NCc2nnc3n2CCCC3)c(=O)[nH]1 | -9.412%
* O=C(NC1CCCC1)N1CCCC(c2nccn2Cc2ccncc2)C1 (stereo not given) | -5.292%
* COCCNC(=O)[C@H]1CN(Cc2cccs2)C[C@H]2OCC[C@@H]12 | -22.26%
* CCn1ncnc1C1CC(=O)NCc2nc(N)sc21 (stereo not given) | 10.58%

The last 4 entries again:

Cc1cc(C)c(CNC(=O)NCc2nnc3n2CCCC3)c(=O)[nH]1 read -9.412%.
O=C(NC1CCCC1)N1CCCC(c2nccn2Cc2ccncc2)C1 (stereo not given) read -5.292%.
COCCNC(=O)[C@H]1CN(Cc2cccs2)C[C@H]2OCC[C@@H]12 read -22.26%.
CCn1ncnc1C1CC(=O)NCc2nc(N)sc21 (stereo not given) read 10.58%.